According to PubChem BioAssay AID504834 (National Center for Advancing Translational Sciences (NCATS), 2011):
Among all 320,000 compounds or so, about 22,000 (6.9%) were called active. The shares of active, inactive and inconclusive entries below differ from those in the screen. Calls follow the shape of the dose curve; as a rule, active = well fitted inhibition curve with a large enough effect; inconclusive = small, poorly fitted or top-dose-only effect, or another doubt; inactive = no such curve, though single readings can be large or run the other way. Potencies of inconclusive entries are doubtful fits and often do not repeat.

assay: Primary qHTS for delayed death inhibitors of the malarial parasite plastid, 96 hour incubation; details: P. falciparum luciferase reporter growth; series mostly up to 28.7 µM
Summary of the method: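 Readout is luminescence from an integrated firefly luciferase in P. falciparum. Red cells, 2% hematocrit and 0.05% parasitemia final, were cultured with compound through two parasite generations (96 hours) at 37 C, 5% CO2.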
Potency is read from the fitted curve at half-maximal effect.

Row | Structure (SMILES) | Potency
1 | CN(Cc1ccc2nonc2c1)Cc1nc(Cc2cccc(F)c2)no1 | active: 13.1 µM
2 | COc1cccc(C2C(C(=O)c3cc4ccccc4o3)=C(O)C(=O)N2c2cc(C)on2)c1 (stereo unspecified) | inconclusive: 18.5 µM [inhibitor, single point]
3 | COc1cc(OC)c(C=O)c(OC(=O)N2CCOCC2)c1 | inconclusive: 7.38 µM [inhibitor, partial curve, poor fit]
4 | COc1cccc2cc(C(=O)NCc3ccc(C)cc3)c(=O)oc12 | inactive
5 | CCC(ONc1ccccc1C(F)(F)F)(C(=O)NN(C)C)c1ccccc1 (stereo unspecified) | inactive
6 | COc1ccc(-c2csc3nc(C)nc(N4CCCCC4)c23)cc1OC | active: 4.65 µM
7 | Cn1c(O)c(C(=N)COc2ccccc2)c(=O)n(C)c1=O | inactive
8 | Cc1cc(N(C)C)nc(Nc2ccccc2)n1 | active: 11.7 µM
9 | O=C(O)c1ccc2c(=O)n3c(nc2c1)/C(=C/c1cccc(Cl)c1Cl)CCCC3 | active: 11.7 µM
10 | CCCS(=O)(=O)c1nc(S(=O)(=O)c2ccc(C)cc2)c(NCc2ccco2)s1 | inconclusive: 1.31 µM [inhibitor, full curve]
11 | O=C(CC(=O)NN=C1CCCCCC1)NCc1cccnc1 | inactive
12 | CCCCn1c(O)c(C(CC)=NCCc2ccccc2)c(=O)[nH]c1=O | inconclusive: 0.0828 µM [inhibitor, partial curve, poor fit]
13 | Cn1c(C(=O)Nc2ccc(Cl)cc2)cc2cc(Cl)ccc21 | inconclusive: 18.5 µM [inhibitor, single point]
14 | O=C/C(=C\Nc1ccc(C(=O)N2CCOCC2)cc1)c1nc2ccccc2o1 | inactive
15 | COc1ccccc1-c1ccc(SCc2ccc(F)cc2)nn1 | inactive
16 | Cc1ccc(N2C(=O)/C(=C/c3ccc(CN(CCC#N)S(C)(=O)=O)o3)C(=O)NC2=S)cc1 | inconclusive: 0.262 µM [inhibitor, partial curve, poor fit]
17 | Cc1ccc(S(=O)(=O)N(C)C)cc1NC(=O)c1ccccc1SCC(=O)N1CCCC1 | inconclusive: 11.7 µM [inhibitor, single point]
18 | COC(=O)c1nn(-c2ccccc2)nc1-c1nn(-c2ccccc2)nc1C(=O)OC | inconclusive: 18.5 µM [inhibitor, single point]
19 | Cc1ccc(OCC(=O)Nc2ccc3c(c2)nc(CCN2CCN(C)CC2)n3C)cc1 | inconclusive: 11.7 µM [inhibitor, single point]
20 | O=C(Nc1ccc(N2CCOCC2)nc1)c1cccs1 | inactive
21 | Nc1ccc(N2CCCCC2)c(Cl)c1 | inconclusive: 9.28 µM [inhibitor, partial curve, poor fit]
22 | COc1ccc(C(=O)Nc2cccnc2)cc1C(=O)Nc1cccnc1 | inconclusive: 8.28 µM [inhibitor, single point]
23 | CC(Sc1nnnn1-c1ccccc1)C(=O)Nc1ccc(N2CCN(C)CC2)cc1 (stereo unspecified) | inactive
24 | Cc1ccc(NC(=O)Cn2c(=O)c3cccn3c3ccccc32)cc1 | inconclusive: 16.5 µM [inhibitor, single point]

Looked up one by one from above:
Row | Structure (SMILES) | Potency
3 | COc1cc(OC)c(C=O)c(OC(=O)N2CCOCC2)c1 | inconclusive: 7.38 µM [inhibitor, partial curve, poor fit]
14 | O=C/C(=C\Nc1ccc(C(=O)N2CCOCC2)cc1)c1nc2ccccc2o1 | inactive
22 | COc1ccc(C(=O)Nc2cccnc2)cc1C(=O)Nc1cccnc1 | inconclusive: 8.28 µM [inhibitor, single point]
11 | O=C(CC(=O)NN=C1CCCCCC1)NCc1cccnc1 | inactive
18 | COC(=O)c1nn(-c2ccccc2)nc1-c1nn(-c2ccccc2)nc1C(=O)OC | inconclusive: 18.5 µM [inhibitor, single point]

Next compounds:

Row | Structure (SMILES) | Potency
25 | O=C1c2ccccc2NC(c2ccc(-c3ccc(F)cc3)o2)N1O (stereo unspecified) | inactive
26 | CCOc1ccc(-n2c(=S)sc3c(=O)[nH]c(SCC(=O)NCC4CCCO4)nc32)cc1 (stereo unspecified) | inconclusive: 0.329 µM [inhibitor, full curve, poor fit]
27 | CC(C)CNC(=O)C(=O)Nc1cc2c3c(c1)C(C)C(=O)N3CCC2 (stereo unspecified) | active: 14.7 µM
28 | Cc1ccc2c(c1)N(CC(=O)N1CCCCC1)C(=O)CO2 | inconclusive: 4.65 µM [inhibitor, partial curve]
29 | CSc1sc(C(=O)N2CCc3ccccc32)cc1S(=O)(=O)C(C)C | inconclusive: 8.28 µM [inhibitor, partial curve, poor fit]
30 | CCOC(=O)C1=CC[C@H]2c3c(c4ccccc4n3C)C(=O)C1N2C(=O)OC(C)(C)C | inconclusive: 9.28 µM [inhibitor, partial curve]
31 | CC1CCc2sc(C(=O)N/N=C/C3CCCCC3)cc2C1 (stereo unspecified) | inconclusive: 14.7 µM [inhibitor, partial curve, poor fit]
32 | O=C(CCN1CCOCC1)NNC(=O)Nc1cccc(Cl)c1 | inconclusive: 10.4 µM [inhibitor, single point]
33 | Cc1ccc(NC(=O)C2CCN(C(=O)c3ccc(F)cc3)CC2)nc1 | inactive
34 | Cc1cccn2c(=O)c3cc(C(=O)N4CCN(Cc5ccccc5)CC4)sc3nc12 | inconclusive: 18.5 µM [inhibitor, single point]
35 | CC(C)(C)c1ccc(C(=O)NC(=O)COC(=O)c2ccco2)cc1 | inactive
36 | COc1cc(F)ccc1CN1CCC(n2nccc2NC(=O)C2CCOC2)CC1 (stereo unspecified) | inactive
37 | CNC(=S)N(Cc1ccco1)Cc1cc2cc(OC)ccc2[nH]c1=O | inactive
38 | CCN(CC)C(=O)c1[nH]cnc1C(=O)NCc1ccc(CNC(=O)OC(C)(C)C)cc1 | inconclusive: 18.5 µM [inhibitor, single point]
39 | O=C(CC1C(=O)NCCN1Cc1ccccc1C(F)(F)F)NC1CCCCCC1 (stereo unspecified) | inconclusive: 13.1 µM [inhibitor, single point]
40 | COc1ccc(C2CC(c3ccccc3OC(C)=O)=NN2C(=O)/C=C/c2ccccc2)cc1OC (stereo unspecified) | inconclusive: 1.31 µM [inhibitor, partial curve]
41 | COc1ccc(C(=O)N2CCN(Cc3ccccc3[N+](=O)[O-])CC2)cc1 | inactive
42 | S=C1NCN(Cc2ccco2)CN1CCc1ccccc1 | active: 8.28 µM
43 | COc1ccccc1/C=C/CN1CCC(n2nccc2NC(=O)CCc2ccccc2)CC1 | inconclusive: 18.5 µM [inhibitor, single point]
44 | CCOc1ccc(/C=C2\SC(=S)N(CCC(=O)N(CCO)c3ccccc3)C2=O)cc1 | inconclusive: 18.5 µM [inhibitor, single point]
45 | CCCC[n+]1c(C)sc2ccc(C)cc21 | active: 4.65 µM
46 | COc1ccc(CNc2ncccn2)cc1OC | inactive
47 | O=C1/C(=C/c2ccco2)Cc2ccccc21 | inconclusive: 11.7 µM [inhibitor, single point]
48 | CCOC(=O)C1CCN(CC(=O)Nc2cc(S(=O)(=O)N3CCCCC3)ccc2Cl)CC1 | inconclusive: 3.7 µM [inhibitor, partial curve]

Quoted from the listing.
Entry of `CSc1sc(C(=O)N2CCc3ccccc32)cc1S(=O)(=O)C(C)C` under Potency: inconclusive: 8.28 µM [inhibitor, partial curve, poor fit]
Entry of `CCOc1ccc(/C=C2\SC(=S)N(CCC(=O)N(CCO)c3ccccc3)C2=O)cc1` under Potency: inconclusive: 18.5 µM [inhibitor, single point]

Later entries

Row | Structure (SMILES) | Potency
49 | COc1ccc(CCNC(=O)C2CCN(C(=O)c3ccc([N+](=O)[O-])cc3)CC2)cc1 | inactive
50 | CCN(CC(=O)NCc1cccs1)C(=O)CCc1c[nH]c2ccccc12 | inconclusive: 18.5 µM [inhibitor, single point]
51 | CCCOC(=O)/C(=C\c1ccc([N+](=O)[O-])o1)NC(=O)c1ccccc1 | active: 0.415 µM
52 | CN(CC(=O)Nc1c(Cl)cccc1Cl)C(=O)C1CC(=O)N(Cc2ccccc2)C1 (stereo unspecified) | inconclusive: 3.7 µM [inhibitor, single point]
53 | CCOc1ccc(NC(=O)CSc2ncc(-c3ccc(F)cc3)n2Cc2ccco2)cc1 | inconclusive: 18.5 µM [inhibitor, partial curve, poor fit]
54 | CCCCOc1ccc(S(=O)(=O)Nc2cc(OC)ccc2OC)cc1 | inactive
55 | Cc1nnc(NC(=O)Oc2ccccc2)s1 | inconclusive: 0.415 µM [inhibitor, partial curve, poor fit]
56 | O=C(CSc1n[nH]c(=O)[nH]c1=O)Nc1ccc2c(c1)C(=O)c1ccccc1C2=O | inactive
57 | COc1ccc(NS(=O)(=O)c2cccc(C(=O)NC3CCC(O)CC3)c2)cc1 (stereo unspecified) | inconclusive: 18.5 µM [inhibitor, single point]
58 | CSC(=S)N/N=C/c1ccccc1 | inconclusive: 2.62 µM [inhibitor, single point]
59 | N#CC1(NC(=O)COC(=O)CCN=C2NS(=O)(=O)c3ccccc32)CCCCC1 | inconclusive: 10.4 µM [inhibitor, single point]
60 | C#CC(CC)(CC)NC(=O)NC1CCCCC1 | inconclusive: 10.4 µM [inhibitor, single point]
61 | COc1ccc2[nH]c(C(=O)N/N=C/c3ccc(OC)c(O)c3)cc2c1 | inconclusive: 10.4 µM [inhibitor, single point]
62 | COc1cc(NC(=O)c2cc3ccccc3cc2O)c(OC)cc1Cl | active: 1.31 µM
63 | CCn1c(-c2csc3ccccc23)n[nH]c1=S | inconclusive: 10.4 µM [inhibitor, single point]
64 | COc1ccc(CCNC(=O)c2[nH]c(C)c(C(C)=O)c2C)cc1OC | inconclusive: 13.1 µM [inhibitor, partial curve, poor fit]
65 | Cn1c(N/N=C/c2cc3ccccc3nc2Cl)nc2ccccc21 | inconclusive: 1.65 µM [inhibitor, full curve, poor fit]
66 | CCNC(=S)Nc1ccccc1-c1ccccc1 | inactive
67 | COc1ccc(N2CCN(CCCNS(=O)(=O)c3ccc4c(c3)oc(=O)n4C)CC2)cc1 | inconclusive: 18.5 µM [inhibitor, single point]
68 | N#Cc1ccccc1OCC(=O)Nc1ccccc1C(=O)NC1CC1 | inconclusive: 18.5 µM [inhibitor, single point]
69 | O=C(NCCC(c1ccccc1)c1ccccc1)c1ccc(Br)o1 | inconclusive: 7.38 µM [inhibitor, partial curve, poor fit]
70 | Cc1nc(C)c(CCNC(=O)c2ccccc2)s1 | inconclusive: 18.5 µM [inhibitor, partial curve, poor fit]
71 | COC(=O)[C@@H](Cc1c[nH]c2ccccc12)NC(=O)C1CCCN(S(=O)(=O)c2ccc(C)cc2)C1 (stereo partly specified) | inconclusive: 13.1 µM [inhibitor, single point]
